# PubChem BioAssay AID686938 | Drosophila RNAi Screening Center | 2013
# Screen: 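Fly genes required for calcium entry once internal stores are emptied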 (primary screen)
# Cell system: Drosophila S2R+ cells
# Knock-down reagent: long dsRNA against Drosophila genes, about 0.25 µg dsRNA per well, roughly 10,000 cells
# Duration: 5 days of knock-down before the calcium assay
# Challenge: thapsigargin (SERCA pump blocker) to empty calcium stores; entry signal taken 4 min after adding it
# Measured: 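Per-well fluo-4 fluorescence in two replicates, unnormalised, measured in resting cells and 4 min after store depletion by the SERCA blocker thapsigargin; ratio of the two present in few wells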
# Direction: calcium entry signal: higher = stronger calcium signal after store depletion; entry to resting ratio: higher = more calcium entry relative to resting level; resting calcium signal: higher = higher resting calcium signal
# Hit rule: 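Called when the plate z-score of the entry-to-rest ratio, mean of duplicates, falls below −3; wells with low overall dye signal (Fmax z below −2) or more than five off-targets excluded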
# Meaning of the calls: active = strongly reduced calcium entry; inactive = no strong reduction
# The screen tested about 23,000 reagents; shown is a random part of those with a known target gene and a result. Of all reagents, 75 (0.33%) are marked active. 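Raw plate signals without normalisation; calls rest on plate z-scores that were not deposited; ratio present for only 364 wells.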 Unmarked entries are inactive. A plus sign joins genes that one reagent is predicted to hit. No sequences are given here. Not stated in the record: the dose of the treatment.
Gene,amplicon,"calcium entry signal, replicate 1 (fluorescence units)","calcium entry signal, replicate 2 (fluorescence units)",entry to resting ratio,"resting calcium signal, replicate 1 (fluorescence units)","resting calcium signal, replicate 2 (fluorescence units)"
CG33159,DRSC08199,4.32e7,3.23e7,,2.04e7,1.69e7
CG7943,DRSC16351,3.03e7,3.69e7,,1.51e7,1.68e7
Pex10,DRSC08599,3.16e7,5.22e7,,1.62e7,2.45e7
Pex10,DRSC22021,2.54e7,4.22e7,,1.22e7,2.18e7
ppk30,DRSC15302,3.58e7,4.19e7,,1.90e7,1.85e7
meso18E,DRSC20351,3.29e7,2.94e7,,1.65e7,1.41e7
Ir7a,DRSC17866,3.02e7,3.00e7,,1.46e7,1.37e7
GstO2,DRSC10691,3.65e7,3.04e7,,2.29e7,1.31e7
CREG,DRSC16595,3.82e7,6.10e7,,1.79e7,9.39e7
hiro,DRSC08564,4.31e7,3.84e7,,2.09e7,1.86e7
CG14985,DRSC08078,5.21e7,4.66e7,,2.63e7,2.15e7
CG14985,DRSC08443,3.90e7,4.59e7,,1.86e7,2.06e7
mRpL40,DRSC15749,3.79e7,3.22e7,,1.87e7,1.63e7
CG4836,DRSC15659,3.85e7,2.79e7,,1.76e7,1.41e7
CG4836,DRSC22066,3.51e7,4.84e7,,1.82e7,2.64e7
CG13252,DRSC11700,2.61e7,4.49e7,,1.39e7,1.99e7
Mvl,DRSC16752,5.03e7,4.09e7,,2.32e7,1.81e7
Cpsf6,DRSC10781,2.80e7,1.78e7,,2.14e7,9.46e6
CG43110,DRSC05661,3.32e7,3.99e7,,1.71e7,2.01e7
lncRNA:sphinx,DRSC17199,5.23e7,5.92e7,2.2,2.34e7,2.32e7
Doc3,DRSC10480,3.68e7,3.91e7,,1.67e7,1.80e7

Ordered by “calcium entry signal, replicate 1 (fluorescence units)” (highest first): some entries from above
Gene,amplicon,"calcium entry signal, replicate 1 (fluorescence units)","calcium entry signal, replicate 2 (fluorescence units)",entry to resting ratio,"resting calcium signal, replicate 1 (fluorescence units)","resting calcium signal, replicate 2 (fluorescence units)"
CG14985,DRSC08078,5.21e7,4.66e7,,2.63e7,2.15e7
hiro,DRSC08564,4.31e7,3.84e7,,2.09e7,1.86e7
CG14985,DRSC08443,3.90e7,4.59e7,,1.86e7,2.06e7
CG4836,DRSC15659,3.85e7,2.79e7,,1.76e7,1.41e7
CREG,DRSC16595,3.82e7,6.10e7,,1.79e7,9.39e7
mRpL40,DRSC15749,3.79e7,3.22e7,,1.87e7,1.63e7
GstO2,DRSC10691,3.65e7,3.04e7,,2.29e7,1.31e7
CG4836,DRSC22066,3.51e7,4.84e7,,1.82e7,2.64e7

The list goes on:
Gene,amplicon,"calcium entry signal, replicate 1 (fluorescence units)","calcium entry signal, replicate 2 (fluorescence units)",entry to resting ratio,"resting calcium signal, replicate 1 (fluorescence units)","resting calcium signal, replicate 2 (fluorescence units)"
CG17105,DRSC02574,3.41e7,4.17e7,,1.85e7,1.89e7
CG31086 + CG31323,DRSC14902,2.58e7,7.10e7,,1.46e7,3.07e7
Myo31DF,DRSC03376,4.67e7,,,2.21e7,
Myo31DF,DRSC22702,5.58e7,3.68e7,,2.64e7,1.65e7
CG31550,DRSC12197,4.24e7,3.14e7,,1.98e7,1.52e7
CG31550,DRSC12198,2.45e7,3.47e7,,1.13e7,1.53e7
CG7512,DRSC10863,2.82e7,3.77e7,,1.60e7,1.57e7
alien + CG17906,DRSC02641,2.62e7,3.18e7,,1.10e7,1.37e7
Yp3,DRSC20302,2.06e7,1.83e7,,1.15e7,9.33e6
Mst84B,DRSC12579,4.52e7,3.89e7,,2.29e7,1.81e7
Ocrl,DRSC18576,3.60e7,4.85e7,,1.77e7,2.41e7
Dic1,DRSC14125,3.84e7,4.52e7,,1.48e7,2.11e7
bigmax,DRSC15481,4.21e7,5.06e7,,1.89e7,2.27e7
dpr17,DRSC12885,2.84e7,3.80e7,,1.71e7,1.84e7
dpr17,DRSC14957,2.83e7,2.68e7,,1.48e7,1.35e7
dpr17,DRSC14958,2.62e7,2.57e7,,1.21e7,1.37e7
hang,DRSC19901,3.76e7,3.98e7,,1.66e7,1.87e7
hang,DRSC19902,1.88e7,1.86e7,,1.00e7,9.10e6
hang,DRSC23216,3.58e7,3.56e7,,1.67e7,1.58e7
CG5662,DRSC19957,4.21e7,2.64e7,,2.24e7,1.40e7
Cyp304a1,DRSC16623,1.95e7,3.96e7,,1.05e7,5.68e7
CG11839,DRSC14398,4.35e7,7.17e7,,2.07e7,3.14e7
CG6654,DRSC16084,3.57e7,4.38e7,,1.58e7,1.82e7
CG7378,DRSC20041,5.10e7,4.88e7,,2.30e7,1.94e7
SmydA-8,DRSC18797,4.51e7,5.70e7,2.2,2.08e7,2.42e7
SmydA-8,DRSC22064,3.88e7,5.70e7,,1.80e7,2.72e7
SmydA-8,DRSC22263,2.74e7,4.27e7,,1.31e7,2.02e7
CG7886,DRSC16333,2.70e7,3.94e7,,1.37e7,6.30e7
Mcm7,DRSC11219,3.08e7,2.26e7,,2.57e7,1.28e7
CG11029,DRSC02119,2.99e7,2.99e7,,1.51e7,1.29e7
Npc2b,DRSC15464,3.24e7,4.60e7,,1.55e7,6.14e7
CG11127,DRSC06043,4.70e7,,,2.33e7,
Ent3,DRSC09822,5.88e7,4.72e7,,3.93e7,2.01e7
l(1)sc,DRSC18789,3.78e7,3.34e7,2.2,1.74e7,1.46e7
Ddr,DRSC00922,3.86e7,4.31e7,,1.97e7,2.00e7
Ddr,DRSC00923,4.42e7,4.25e7,,2.22e7,2.03e7
Ddr,DRSC02150,3.35e7,4.22e7,,1.68e7,1.94e7
Ddr,DRSC03229,3.80e7,2.57e7,,1.86e7,1.26e7
Ddr,DRSC03230,3.44e7,3.63e7,,1.82e7,1.66e7
Ddr,DRSC22818,3.49e7,4.33e7,,1.72e7,2.00e7
